At least one compound was matched to its structure with a doubt left.
Test system: obese diabetic patients with impaired gut hormone effect and/or impaired gut hormone secretion
Assay: Oral Glucose Tolerance Test 30 minutes after rectal metformin (suppositories or enema); blood hormone levels
Type: in vivo, human
Conditions: 10 overnight fasted patients, 1 g metformin rectally (suppositories or enema), OGTT 30 minutes after administration, blood -30 to 120 minutes

Structure (SMILES): CN(C)C(=N)N=C(N)N [metformin, Dimethylbiguanide]
- GLP-1 levels after treatment regime: increase
